These results are taken from publication PMC6107167.

The test addresses T1, NHLRC2 NHL repeat β-propeller domain (aa 221-572) (human) (UniProt Q8NBF2).
T1 sequence: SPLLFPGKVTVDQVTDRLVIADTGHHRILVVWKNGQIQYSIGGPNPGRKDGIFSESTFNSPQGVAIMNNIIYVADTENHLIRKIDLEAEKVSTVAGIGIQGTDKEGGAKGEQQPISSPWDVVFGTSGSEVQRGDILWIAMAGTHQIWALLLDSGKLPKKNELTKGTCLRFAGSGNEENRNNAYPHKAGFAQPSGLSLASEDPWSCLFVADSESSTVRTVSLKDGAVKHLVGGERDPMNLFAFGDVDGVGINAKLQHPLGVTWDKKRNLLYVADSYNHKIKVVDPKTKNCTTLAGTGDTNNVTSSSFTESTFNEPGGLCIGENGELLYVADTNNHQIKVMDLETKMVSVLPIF
Description: SEC-MALS; purified Trx-like domain with linker and β-propeller domain mixed in equimolar ratio, incubated 3 hours at room temperature; Superdex 200 Increase 10/300; 20 mM BisTris pH 6.5, 150 mM NaCl, 2 mM DTT; both purified. On the technique in general: Size exclusion chromatography separates by hydrodynamic size, large species first.

Results are given in words; binding and its absence hold for the method and conditions named.

For “NHLRC2 Trx-like domain with a linker region (human) (domain or fragment)”, the binding entry is listed as “no binding”.
